Reference: patent US10828349B2, “Treatment of microbial infections” (NATIONAL UNIVERSITY OF IRELAND, GALWAY, priority 2011, dated 2020)

Settings: for thiocyanate level read after 24 hours: lactoperoxidase, glucose oxidase

## N#C[S-].[K+] [Thiocyanate, potassium thiocyanate]
1× (1.36 mM) dose incubated overnight with glucose
  thiocyanate level read after 24 hours: 0.17 × dose
1× and 5× doses, 24 hours
  drop in thiocyanate levels: 80-85%
5× (6.8 mM) dose incubated overnight with glucose
  thiocyanate level read after 24 hours: 1.1 × dose

Like-named read-outs stand apart in the source and are kept apart here.
